Results deposited as PubChem BioAssay AID1053208 (Peter MacCallum Cancer Centre, 2014).
Test: 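Genes whose silencing cuts survival of bone tumour cells only with doxorubicin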 (primary screen). Cells: mouse osteosarcoma cells, early-passage culture from an engineered mouse model of fibroblastic bone tumour. Knock-down reagent: siRNA pool against mouse genes, 40 nM. Duration: about 120 h (48 h before drug, then 72 h with drug). Treatment: doxorubicin 100 nM for 72 h, roughly 30-40% inhibitory dose. Measured: 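Viability read as ATP luminescence after 72 h of 100 nM doxorubicin or none, duplicate wells averaged, scaled to non-targeting siRNA, then expressed as robust z-scores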. Reading the numbers: viability z-score with doxorubicin: higher = more viable cells under doxorubicin; viability z-score without drug: higher = more viable cells with knock-down alone. Rule for the call: 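a pool counts as active when its viability z-score with doxorubicin is -2 or below and its z-score without drug lies between -2 and 2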.
This is a random part of about 17,000 reagents. 788 of them (4.7%) count as active. 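Calls rest on z-score classes alone; an extra cut-off of viability at most 70% of control was not applied to them.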 Entries without a mark were called inactive. Further read-outs or replicates are left out here. No sequences are given here.

target gene | combined z-score class | viability z-score with doxorubicin | viability z-score without drug
Pdhx | no change with or without drug | 0.45 | 0
Des | high cell count without drug only | 0.67 | 2.02
Krt4 | no change with or without drug | -0.22 | 0.51
Gja3 | no change with or without drug | 1.57 | 0.34
Elk1 | no change with or without drug | 0 | 1.52
Rap2b | no change with or without drug | 0.56 | -0.17
Polrmt | no change with or without drug | 0.9 | -0.51
Or10g9b | low cell count with doxorubicin only (active) | -2.36 | -1.52
Zp3 | no change with or without drug | 0.22 | -1.52
Sprr2h | no change with or without drug | 0.56 | 1.69
Ryr1 | no change with or without drug | -0.22 | 0.51
Zfp280b | no change with or without drug | 0.9 | -0.84
Megf6 | no change with or without drug | 0.67 | 0.51
Cd1d1 | no change with or without drug | 0.9 | 0.84
Acsf3 | no change with or without drug | -0.56 | -0.51
Zcrb1 | no change with or without drug | -0.22 | -0.67
Ryr2 | no change with or without drug | -0.45 | 0.51
Pxmp2 | no change with or without drug | -1.35 | -0.34
Fam184b | no change with or without drug | 0.45 | 0.84
Dhx8 | no change with or without drug | 0.34 | -0.17
Svbp | no change with or without drug | 0.67 | 0.84
Atxn3 | no change with or without drug | -0.45 | 0.17
Map4k1 | no change with or without drug | -0.67 | -0.84
Wnt9a | no change with or without drug | 0.79 | -0.84
Bag5 | no change with or without drug | 1.35 | 1.85
Synpr | no change with or without drug | 1.01 | 0.84
Agrn | no change with or without drug | -0.67 | 0.17
Snrpg | low cell count with and without drug | -5.4 | -4.72
Scart2 | no change with or without drug | 1.01 | 1.18
Zfp410 | no change with or without drug | -0.67 | 0.34
Nucks1 | high cell count with doxorubicin only | 2.02 | 0.51
Tfdp1 | no change with or without drug | -0.11 | 0.84
Or6c2 | no change with or without drug | -0.67 | -1.52
Cav3 | no change with or without drug | -0.79 | -0.84
4930555G01Rik | high cell count without drug only | 0.79 | 2.36
Tmem132d | no change with or without drug | -0.67 | -0.51
Rnf151 | no change with or without drug | 1.12 | -0.17
Fscn3 | no change with or without drug | -1.01 | -1.52
Or5aq1 | high cell count without drug only | 1.35 | 2.87
Sephs2 | no change with or without drug | -0.34 | 0.84
C030016D13Rik | no change with or without drug | -0.22 | 0
Gbp9 | no change with or without drug | -1.35 | -0.51
Pdcd6 | no change with or without drug | -0.56 | 0.84
Or8b48 | no change with or without drug | 0.79 | -0.17
Dmbx1 | low cell count with doxorubicin only (active) | -2.36 | -0.51
Kif13a | no change with or without drug | -0.56 | 0
Slc1a1 | no change with or without drug | 0.11 | -0.84
Rab30 | no change with or without drug | -0.67 | -1.52
Wdr54 | no change with or without drug | 1.8 | 1.18
Pdap1 | no change with or without drug | -1.35 | -0.84
Crispld1 | no change with or without drug | 1.12 | 1.18
Slc38a1 | no change with or without drug | -1.12 | 0.17
Pcdhga9 | low cell count with doxorubicin only (active) | -2.7 | -1.18
Slc31a2 | low cell count with doxorubicin only (active) | -2.02 | -1.52
Zfp609 | no change with or without drug | 1.12 | -0.17
Ephx1 | no change with or without drug | 0.45 | -0.84
Tm4sf20 | high cell count without drug only | -0.9 | 2.19
Zfp677 | no change with or without drug | 0.67 | 1.18
Ptprb | no change with or without drug | 1.57 | 1.69
Rnmt | no change with or without drug | -1.91 | 0.17
Nradd | no change with or without drug | 1.57 | 0.17
Sult2a2 | no change with or without drug | 0.67 | 0.84
Elf1 | no change with or without drug | 1.12 | 1.69

Individual results from above:
For “combined z-score class”, Nradd reads no change with or without drug
Under “combined z-score class”, Synpr reads no change with or without drug
Entry of Ptprb in “viability z-score with doxorubicin”: 1.57
Under “combined z-score class”, Cav3 shows no change with or without drug
For “viability z-score without drug”, Gja3 is entered as 0.34
Under “viability z-score without drug”, Rnmt is entered as 0.17
